Values of other authors in US9044480B1, “Compositions and methods for treating HCV” (priority 2011, dated 2015).
For at least one compound, name, drawing or mass did not settle the structure.

Tested on: HCV R155K mutation
Conditions: clinical trials and replicon cell assays (Bartels et al.; Lu et al.; Zhou et al.); cited from earlier work

CC(C)(C)NC(=O)N[C@H](C(=O)N1C[C@H]2[C@@H]([C@H]1C(=O)NC(CC1CCC1)C(=O)C(N)=O)C2(C)C)C(C)(C)C (some centres unmarked) [boceprevir]
Resistance conferred by the R155K mutation: low-level resistance

CCC[C@H](NC(=O)[C@@H]1[C@H]2CCC[C@H]2CN1C(=O)[C@@H](NC(=O)[C@@H](NC(=O)c1cnccn1)C1CCCCC1)C(C)(C)C)C(=O)C(=O)NC1CC1 [telaprevir]
Resistance conferred by the R155K mutation: low-level resistance
